Article PMC4861126
Results are given in words; binding and its absence hold for the method and conditions named.

The chains behind the UniProt entries cited, without tags or fusion partners.
UniProt P15064: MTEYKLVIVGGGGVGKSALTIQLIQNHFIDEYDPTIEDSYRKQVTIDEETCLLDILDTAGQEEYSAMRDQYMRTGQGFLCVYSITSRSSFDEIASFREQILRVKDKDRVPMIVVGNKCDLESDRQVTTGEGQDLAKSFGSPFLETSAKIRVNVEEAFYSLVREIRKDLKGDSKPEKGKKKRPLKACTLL

Molecular target: RasG loaded with mGppNHp (UniProt P15064)
Experiment: GDI (guanine nucleotide dissociation inhibition) assay, fluorescence; mGppNHp labelled G-protein with indicated amounts of RA-TalB, 200 fold excess of GppNHp, 25 °C; 50 mM Tris-HCl pH 7.5, 5 mM MgCl2, 50 mM NaCl, 5 mM DTE; Kd from dependence of kobs on RA-TalB concentration; both purified

B1: Dictyostelium RA-TalB domain (residues 1-122) (domain or fragment, UniProt Q54K81 1-122)
chain: MSLTLKIQIVRDKQVKAMKFSPTQTVAEVCAQVREKINETSGDDHGLFQPGIDAKRPSRWLKMDKTLQFYDLKINDELDYKKKHRPLKVRLMDETVKTMLVDDSLTAGEILEIIGKRIGIKN
For B1, the binding was “no binding (tested: 100 μM)”.
